# Measurements: US10328092B2, “Methods and compositions for treatment of drug addiction” (The Royal Institution for the Advancement of Learning / …, priority 2015, dated 2019)
# For at least one compound, name, drawing or mass did not settle the structure.
# What was measured:
# astrocytes = test: GFAP immunostaining of astrocytes in nucleus accumbens; type: in vivo, mouse; conditions: one or five daily injections of cocaine
# TNFα = TNFα mRNA / protein in ventral striatum (NAc) after in vivo treatment; set-up: species or system mouse
# Experimental: To determine the effect of in vivo cocaine exposure on TNFα levels in the ventral striatum, TNFα mRNA and protein levels were measured in mice given intraperitoneal injections of saline or cocaine. […] To understand the impact of TNFα on synaptic function in the NAc, AMPA/NMDA ratios were measured at glutamatergic synapses on MSNs in the NAc core. Alteration in NAc core AMPA receptors are involved in the expression of behavioral sensitization to psychostimulants (Kalives, 2009).
# Mice (8-10 weeks) were perfused and their brains submerged overnight in 4% PFA, cryoprotected with 30% sucrose, and cut in 30 μm thick coronal slices using a cryostat. The sections were incubated for 4 hours with blocking solution (2% normal goat serum, 3% BSA, 0.2% Triton X-100 in PBS) before incubation overnight at 4 C with primary antibodies in blocking solution (rabbit anti-Iba1 antibody [019-19741, Wako; 1:800; RRID: AB_2566825], chicken anti-GFAP antibody [AB5541, Millipore; 1:500; RRID: AB_177521], rabbit anti-NeuN [ab104225, Abcam, 1:400; RRID: AB_10711153], and rabbit anti-TNFα antibody [ab6671, Abcam, 1:100; RRID: AB_305641] or mouse anti-TNFα antibody [ab1793, Abcam, 1:100; RRID: AB_302615]). Sections were washed (2×15 min with PBST [0.05% Tween20] and 1×15 min with PBS at RT) and incubated for 2 hrs at room temperature in secondary antibodies (anti-rabbit, anti-chicken, or anti-mouse IgG-conjugated Alexa Fluorochrome [Invitrogen; 1:400]). Sections were washed and briefly (<30 seconds) incubated with Hoechst 33342 [H1399, Molecular Probes; 1:10,000] in PBS. The stained sections were imaged using an Olympus FluoView FV1000 confocal microscope with Fluoview imaging software (FV10-ASW). Images of the ventral striatum (nucleus accumbens core and shell) were acquired with a 40× or 60× objective and stacks of 25-30 optical sections (1 μm per section) of depth were Z-projected into a single window and analysed using ImageJ software (NIH).
# The number of Iba1+ microglia were manually counted from 212×212 μm (60× objectives) or 317×317 μm (40× objectives) images. TNFα intensity was measured using the mean grey value of the entire image while Iba1 intensity measurements were obtained using a thresholded area to highlight only the microglia. Cell body area (μm^2) was measured based on Iba1 staining and using the freehand selection tool. Additional analysis of microglia morphology in saline and cocaine treated mice was done using IMARIS software (Bitplane). […] The following parameters were analyzed for 40 microglia per group: total process length (sum of length of all processes), total process volume, process diameter and number of branch points and terminals. […]
# After 40 cycles, the Ct values were determined.
# [1] = test system: primary rat microglia cultures; test: TNFα mRNA in primary rat microglia cultures; type: cell-based; conditions: cocaine 1 μm, 3 h
# Experimental: For tissue, total RNA from the ventral striatum was extracted and isolated by RNAqueous-4PCR total RNA isolation kit (Ambion, AM1914), according to manufacturer's instructions. For microglia and astrocyte cultures, total RNA was isolated by RNeasy kit (Qiagen, 74136). For all sample types, 0.5 μg of total RNA was used for cDNA synthesis with Quantitect Reverse Transcription Kit (Qiagen, 205313), and quantitative RT-PCR was performed with Fast SYBR-Green Master Mix (Applied Biosystems) detected by StepOne Plus RealTime PCR system (Applied Biosystems). The sequences of qPCR primers used for mRNA quantification in this study were obtained from Integrated DNA Technologies, and are as follows: mouse TNFα forward, […] (SEQ ID NO: 1) [200 nM]; mouse TNFα reverse, […] (SEQ ID NO: 2) [200 nM]; mouse GAPDH forward, […] (SEQ ID NO: 3) [300 nM]; mouse GAPDH reverse, […] (SEQ ID NO: 4) [300 nM]; rat TNFα forward, […] (SEQ ID NO: 1) [600 nM]; rat TNFα reverse, […] […] After 40 cycles, the Ct values were determined. To normalize the samples, ΔCt between TNFα and GADPH or cyclophilin Ct values was calculated. The x-fold difference in expression between the different treatments was then determined by subtraction of the ΔCt values and termed ΔΔCt. Finally, the total change was calculated as 2-ΔΔct and the relative amount compared with control samples was deducted. […]
# [2] = test system: microglia in the nucleus accumbens; test: Microglia activation in nucleus accumbens (Iba1 immunostaining, morphology); type: in vivo, mouse
# Experimental: Resting microglia have a ramified morphology but continuously survey the healthy brain and respond to a variety of activation signals by undergoing progressive morphological and functional changes (Kettenmann et al., 2011). Cocaine administration could activate microglia in the NAc, which could lead to the observed elevation of TNFα. Using the microglia marker Iba1, microglia was labeled in adult mice, 24 hours after a single cocaine injection, 24 hrs after 5 days of daily cocaine injections, or after 10 days of drug abstinence. […]
# Mice (8-10 weeks) were perfused and their brains submerged overnight in 4% PFA, cryoprotected with 30% sucrose, and cut in 30 μm thick coronal slices using a cryostat. […] Images of the ventral striatum (nucleus accumbens core and shell) were acquired with a 40× or 60× objective and stacks of 25-30 optical sections (1 μm per section) of depth were Z-projected into a single window and analysed using ImageJ software (NIH).
# The number of Iba1+ microglia were manually counted from 212×212 μm (60× objectives) or 317×317 μm (40× objectives) images. TNFα intensity was measured using the mean grey value of the entire image while Iba1 intensity measurements were obtained using a thresholded area to highlight only the microglia. Cell body area (μm^2) was measured based on Iba1 staining and using the freehand selection tool. […]
# D2-MSNs in the NAc core = test: AMPA/NMDA ratio on D2-MSNs after in vivo treatment; set-up: species or system mouse; conditions: 1 day or 5 days of cocaine 15 mg/kg; WT or TNFα-KO mice
# mice = test: Cocaine-induced behavioural sensitization, locomotor response; type: in vivo, mouse; conditions: wildtype mice, 15 mg/kg cocaine daily for 5 days, 10 days of withdrawal
# Experimental: A cocaine induced behavioral sensitization animal model of drug addiction was used. Sensitization refers to the augmentation of behavioral responses to drugs of abuse that occurs during their repeated administration and persists long after drug exposure is discontinued. In this paradigm mice are injected with 15 mg/kg cocaine and put in an open field box and measure the cocaine stimulatory effects on locomotor for 15 min. After the first run mice are injected with 10 ug of MPL and returned to their home cage.
# The response of mice to repeated doses of cocaine was compared. After habituating animals to handling, the animals receive an IP injection and have their locomotor activity monitored in open-field chambers using Ethovision software for 15 min. […] Following 7-10 days without injections (withdrawal), mice receive a challenge dose of cocaine (also 15 mg/kg) and locomotor activity again assessed (see Examples 1 and 2). […]
# Locomotion was monitored in 30×30 cm plexiglass boxes by the EthoVision video-tracking system (Noldus) and performed near the end of the light phase of the light-dark cycle under dim red light. After habituating animals to handling, mice received IP injections of saline or cocaine and their activity was recorded for 15 min. […] Following 10 days without injections (withdrawal), mice receive a challenge dose of cocaine (15 mg/kg) and locomotor activity again assessed (day 17). […]
smiles,measurement,setting,value
COC(=O)[C@H]1[C@@H](OC(=O)c2ccccc2)C[C@@H]2CC[C@H]1N2C [cocaine],area or intensity of GFAP immunostaining in the NAc,astrocytes,did not alter
same,TNFα mRNA in the ventral striatum,TNFα; 5 daily injections of cocaine i.p. 15 mg/kg,increases
same,TNFα protein in the NAc,"TNFα; 5 daily injections of cocaine i.p. 15 mg/kg, 24 hours after last",increases
same,TNFα levels,TNFα; 10 days of abstinence from cocaine,returned to basal levels
same,TNFα levels (mRNA and protein),"TNFα; single injection of cocaine, 24 hours post-injection",had no effect
same,TNFα mRNA levels in microglia cultures,[1],did not alter
same,Iba1 intensity in microglia,"[2]; 5 days of cocaine, and after a period of abstinence",increased
same,total length of microglia processes,"[2]; cocaine, after withdrawal",not significantly altered
same,"effect on AMPA/NMDA ratios, D2-MSNs",D2-MSNs in the NAc core,had no effect
same,locomotor response to a test dose of cocaine,mice,elevated
